Results are given in words; binding and its absence hold for the method and conditions named.
Legend:
[1] = target: reverse sequence control peptide of NH2htau 26-44; assay: thioflavin T fluorescence; 20 µM peptide in 10 mM phosphate buffer pH 7.4, 100 mM NaCl, 60 µM ThT, 37 °C, without and with TLBE LUV 200 µM; followed up to 48 h; fibril formation; both purified
[2] = target: reverse sequence control peptide of NH2htau 26-44; assay: dynamic light scattering; peptide at nominal 2.5 mg/ml in PBS pH 7.4, centrifuged 10 min at 10 000g and filtered; number-weighted hydrodynamic radius, followed over 12 h; both purified

- binding [1]: no binding (tested: 20 µM)
- binding [2]: no binding (tested: 2.5 mg/ml)
B1: reverse sequence control peptide of NH2htau 26-44 (peptide)
peptide: KLGADTDGEQDQHMTYGGQ

— publication PMC5630290
